The assay is described as follows: qHTS Assay to Find Inhibitors of Chronic Active B-Cell Receptor Signaling. As to conditions: ABC-DLBCL IkBa-CBG/CBR reporter, luminescence ratio (green luciferase fused to IkBa over red control in TMD8 lymphoma cells), 4 h. Summed up:
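TMD8 ABC-DLBCL cells carrying doxycycline-inducible green luciferase fused to IkappaBalpha plus unfused red luciferase were exposed to compounds (up to 46 uM) for 4 hrs at 37C. Activity came from the overlap-corrected green/red luminescence ratio.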
On the technique in general: Quantitative high-throughput screening tests each substance at several concentrations.

[1] abbreviates: measured here: CBR red luminescence, cell number.
The mark [2] stands for this setting: measured here: IkBa-CBG green luminescence.

In general, AC50 refers to the concentration giving half of the maximal activity seen.

The other results are listed elsewhere or left out. These are further read-outs of the screen, such as a control signal, another cell line or another target. No call is given for them. Most of these compounds were active or inconclusive in the main read-out, so they are no random draw. The note in brackets gives the kind of curve behind each potency; many fits are weak.

Consider `Cc1nc2ncnn2c(C)c1CCC(=O)NC(C)CCc1ccco1` (stereo not drawn), for which the AC50 under setting [1] was 35.5 µM [rising, single point]. Consider `CCn1c(C)cc(C(=O)COC(=O)c2ccccc2[N+](=O)[O-])c1C`, for which the concentration at half-maximal activity (AC50) under setting [1] was 1.03 µM [rising, full curve, poor fit].

`CCCn1c(SCC(=O)Nc2ccccc2N2CCCCC2)nc2c1c(=O)n(C)c(=O)n2C`: the AC50 under setting [1] was 3.66 µM [falling, partial curve, poor fit]. On to `Cn1ccc2c(OCC(=O)NCc3ccccc3)cccc2c1=O`, for which, under setting [1], the AC50 was 3.55 µM [falling, partial curve]. On the same count and under the same terms, to `Clc1ccc(N=C2SCCS2)cc1` belongs 14.1 µM [rising, partial curve, poor fit]; to `CCOC(=O)CN1N=C(/C=C/c2ccc(C(C)C)cc2)CCC1=O`, 12.6 µM [rising, partial curve]. Turning to `CN=C1C([N+](=O)[O-])=CC=C2C1=NC1(CCCCC1)N2O`, the AC50 by setting is: under setting [1], 1.3 µM [rising, full curve, poor fit]; under setting [2], 4.61 µM [falling, single point]. Regarding `Cc1nc2ccccc2nc1OCc1ccccc1`, the AC50 under setting [1] is 14.6 µM [rising, partial curve].

Take `CCc1ccc2oc(C(=O)NCCc3ccc(S(N)(=O)=O)cc3)cc(=O)c2c1`: the AC50 under setting [1] was 20 µM [rising, single point].

As for `CCc1ccccc1NC1=NCC(=O)N1Cc1ccc2c(c1)OCO2`, under setting [1], the AC50 is 16.4 µM [falling, partial curve, poor fit]. Consider `CCN1CCN(c2cc(C(C)C)nc3c(-c4ccccc4)c(C)nn23)CC1`, for which the AC50 under setting [1] was 35.5 µM [falling, single point].

`COc1ccc(-c2ccnc(-c3ccc(O)cc3)n2)cc1`: the AC50 runs as follows: under setting [1], 17.8 µM [rising, single point]; under setting [2], 28.2 µM [falling, partial curve, poor fit]. On to `CC(O)c1cc2c(cc1NC(=O)c1cnn3c1NC(c1ccco1)CC3C(F)(F)F)OCO2` (stereo not drawn), for which, under setting [1], the AC50 is 29.1 µM [rising, single point].

As for `CN(CCNC(=O)c1ccc(CS(=O)(=O)c2ccc(Br)cc2)o1)CCc1ccccc1`, the AC50 under setting [1] was 35.5 µM [falling, partial curve, poor fit].

Consider `COc1cccc(-c2nnc(SCC(=O)Nc3cc(C)on3)o2)c1`, for which the AC50 under setting [2] was 35.5 µM [falling, partial curve, poor fit]. Consider `COc1ccc(/C=N/NC(=O)c2[nH]nc3c2CCc2ccccc2-3)cc1OC`, for which the AC50 is, setting by setting: under setting [1], 29.1 µM [rising, single point]; under setting [2], 6.51 µM [falling, full curve]. For the molecule `CCCn1nnnc1NCc1ccc(CC)cc1`, the AC50 under setting [1] is 35.5 µM [rising, single point].

For the molecule `Cc1cc(C)nc(-n2nc(C)c(Sc3ccc(F)cc3)c2N)n1`, the AC50 under setting [1] is 12.6 µM [falling, single point].

Consider `CCOC(=O)C1CCCN(C(=O)Cn2sc3nc(C)cc(C)c3c2=O)C1` (stereo not drawn), for which the half-maximal activity concentration (AC50) is 8.2 µM [falling, partial curve, poor fit] under setting [1] and 29.1 µM [rising, partial curve, poor fit] under setting [2]. `O=C(O)c1ccccc1Nc1ccnc(C(F)(F)F)c1`: under setting [1], the AC50 is 5.62 µM [rising, single point].

On to `COc1cc2c(cc1OC)C(C)N(C(=O)CCN1C(=O)C3C4C=CC(C4)C3C1=O)CC2` (stereo not drawn), for which the AC50 under setting [1] was 29.1 µM [rising, single point].

In the case of `O=C(N/N=C/c1ccccn1)c1[nH]c2ccc([N+](=O)[O-])cc2c1-c1ccccc1`, the AC50 is 35.5 µM [rising, single point] under setting [1] and 35.5 µM [falling, single point] under setting [2]. As for `COc1cc(OC)cc(C(=O)OCC(=O)Nc2sccc2C(N)=O)c1`, the AC50 under setting [1] was 35.5 µM [falling, single point]. `O=C(Nc1ccc(S(=O)(=O)N2CCOCC2)cc1)c1ccco1`: the concentration at half-maximal activity (AC50) under setting [1] is 23.1 µM [rising, partial curve, poor fit]. `COc1cc(OC)c(C(=O)/C=C/c2ccc(OCc3ccccc3)c(OC)c2)c(OC)c1`: under setting [2], the AC50 was 12.6 µM [falling, single point]. On to `CCOc1ccc(NC(=O)CN(C)C(=O)c2c(-c3ccccc3)noc2C)cc1OCC`, for which the AC50 under setting [1] is 23.1 µM [rising, single point]. The same measure, in the same setting: to `O=C(Nc1cccc(Cl)c1)N1CCN(c2ncccn2)CC1` belongs 29.1 µM [falling, single point]; to `CC(C)(C)NS(=O)(=O)c1ccc(CCC(=O)Nc2cc(Cl)ccc2Oc2ccccc2)cc1`, 23.1 µM [falling, single point]. Take `Cc1ccc(NC(=O)c2ccc3c(c2)C(=O)N(CC2CCCO2)C3=O)cc1C` (stereo not drawn): the AC50 under setting [1] was 0.794 µM [rising, full curve, poor fit].

`Cc1ccc(OCC(=O)Nc2ccc([N+](=O)[O-])cc2)cc1`: under setting [1], the AC50 is 1.64 µM [rising, full curve].

In the case of `Cc1ccc(S(=O)(=O)N2CCN(C(=O)CSc3n[nH]c(N)n3)CC2)c(C)c1`, under setting [2], the AC50 was 29.1 µM [falling, partial curve, poor fit]. Take `CCc1ccc(NC(=O)C(C)OC(=O)c2ccc(NS(=O)(=O)c3ccc(C)c([N+](=O)[O-])c3)cc2)cc1` (stereo not drawn): the AC50 under setting [1] was 18.4 µM [falling, single point]. As for `Cc1cnc(NC(=O)c2ccccn2)s1`, the AC50 under setting [1] is 11.2 µM [falling, partial curve, poor fit].

Consider `O=C(OC(C(=O)Nc1cc(Cl)cc(Cl)c1)c1ccccc1)C1=COCCO1` (stereo not drawn), for which the AC50 under setting [1] is 2.06 µM [falling, partial curve, poor fit]. The same measure, in the same setting: to `Cc1ccc(-c2cc(-c3ccccc3O)nc(N/N=C/c3cccnc3)n2)cc1` belongs 1.26 µM [falling, full curve]. For `CCOc1cc(/C=N/O)ccc1OCc1ccc([N+](=O)[O-])cc1`, under setting [1], the AC50 was 5.8 µM [rising, partial curve].

As for `COC(=O)c1ccccc1NC(=O)CSc1[nH]c(=O)cc(C)c1C#N`, the AC50 under setting [1] was 15.8 µM [falling, single point].

As for `CC1CCCC(C)N1C(=O)COC(=O)c1ccc(Br)o1` (stereo not drawn), the concentration at half-maximal activity (AC50) under setting [1] was 6.51 µM [rising, single point]. Regarding `COc1cc(OC)cc(C(=O)OCC(=O)Nc2ccc(N3CCCCC3)cc2)c1`, the AC50 under setting [1] is 6.51 µM [falling, single point]. The same measure, in the same setting: to `COc1cccc2cc(CC(=O)c3ccccc3)c(=O)oc12` belongs 14.1 µM [falling, partial curve]; to `Cc1ccc(-c2cc(C(=O)Nc3ccccc3C)c3ccccc3n2)o1`, 0.731 µM [falling, full curve, poor fit]. Turning to `O=C(COc1ccc(Oc2ccccc2)cc1)NCc1cn2ccccc2n1`, the AC50 under setting [1] was 3.98 µM [rising, full curve, poor fit] and the AC50 under setting [2] was 10 µM [falling, partial curve].

Take `O=c1/c(=C\c2ccc(O)cc2)sc2n1C(c1ccccc1)C(c1ccccc1)=NN=2` (stereo not drawn): under setting [1], the AC50 is 12.6 µM [falling, partial curve].

Take `O=c1[nH]c(-c2ccc(O)cc2)nc2scc(-c3cccs3)c12`: the AC50 under setting [1] was 12.6 µM [falling, single point]. Consider `CNCC/C=C1/c2ccccc2CSc2ccccc21`, for which the AC50 under setting [1] was 0.116 µM [falling, full curve, poor fit]. Take `COc1ccc(N2CCN(C(=O)c3cc4c(-c5ccc(Cl)cc5)nn(C)c4s3)CC2)cc1`: the AC50 under setting [1] was 3.26 µM [rising, single point]. In the case of `COc1ccc(/C(C)=N/Nc2ncc(Cl)cc2Cl)c(O)c1`, the AC50 runs as follows: under setting [1], 9.2 µM [rising, partial curve, poor fit]; under setting [2], 3.26 µM [falling, partial curve, poor fit]. With `COc1cc(CN(C)CC(=O)c2[nH]c(C)c(C(C)=O)c2C)ccc1OC(F)F`, the AC50 under setting [1] was 29.1 µM [rising, single point]. For the molecule `CC(=O)c1sc(N/N=C\c2ccccc2O)nc1C`, the AC50 under setting [1] is 10 µM [falling, single point]. In the case of `CCCCn1nnc(NC(=O)COc2cc(C)ccc2C(C)C)n1`, the AC50 under setting [1] is 1.46 µM [falling, partial curve, poor fit]. Still for that read-out and setting: to `O=C(CCN1C(=O)C2C3C=CC(C3)C2C1=O)N1CCN(c2ccccc2Cl)CC1` (stereo not drawn) belongs 6.51 µM [rising, single point]. As for `O=C(c1ccc2ncsc2c1)N1CCCC(C(F)(F)F)C1` (stereo not drawn), the AC50 under setting [1] was 2.31 µM [rising, full curve, poor fit].

Regarding `Nc1c(C(=O)CSc2nnc(-c3ccccc3)o2)c(=O)[nH]c(=O)n1C1CC1`, the AC50 under setting [1] is 0.231 µM [rising, full curve, poor fit].

Take `O=C(NN=Cc1c(F)c(F)c(F)c(F)c1F)c1ccc(NS(=O)(=O)c2cccs2)cc1`: the AC50 under setting [1] was 16.4 µM [falling, partial curve, poor fit]. Consider `NS(=O)(=O)c1ccc2nc(NC(=O)Nc3ccccc3F)sc2c1`, for which the AC50 under setting [1] was 3.55 µM [rising, partial curve, poor fit]. Still for that read-out and setting: to `FC(F)(F)C(F)(F)C(F)(F)c1nnc2ccc(N3CCOCC3)nn12` belongs 0.184 µM [falling, full curve, poor fit]. Turning to `CCOC(=O)C(=O)NC12CC3CC(CC(C3)C1)C2`, the AC50 under setting [1] is 13 µM [rising, partial curve, poor fit].

Take `CNC(=O)[C@@H]1C[C@H]1[C@@H](NC(=O)OCc1ccccc1)c1ccccc1`: the AC50 under setting [1] is 20.6 µM [rising, single point] and the AC50 under setting [2] was 20.6 µM [falling, single point].

In the case of `COc1ccc(C(=O)NC(=S)Nc2ccc(S(N)(=O)=O)cc2)cc1`, the AC50 under setting [1] is 3.55 µM [rising, partial curve, poor fit]. Turning to `CC1CCCCC1NC(=O)NC(=O)COC(=O)c1cncc(Br)c1` (stereo not drawn), the AC50 under setting [1] was 18.4 µM [falling, partial curve, poor fit].

The values above are taken from PubChem BioAssay AID493014 (National Center for Advancing Translational Sciences (NCATS), 2011).
